Data reported in patent US20150184166A1 (Uinversity of Iowa Research Foundation, priority 2012, published 2015).
The name of at least one read-out is uncertain.

Amino acid sequences for entries named in this document (tags omitted). A change or cut given only in a name is not applied to a line headed by its entry.
UniProt H9N290: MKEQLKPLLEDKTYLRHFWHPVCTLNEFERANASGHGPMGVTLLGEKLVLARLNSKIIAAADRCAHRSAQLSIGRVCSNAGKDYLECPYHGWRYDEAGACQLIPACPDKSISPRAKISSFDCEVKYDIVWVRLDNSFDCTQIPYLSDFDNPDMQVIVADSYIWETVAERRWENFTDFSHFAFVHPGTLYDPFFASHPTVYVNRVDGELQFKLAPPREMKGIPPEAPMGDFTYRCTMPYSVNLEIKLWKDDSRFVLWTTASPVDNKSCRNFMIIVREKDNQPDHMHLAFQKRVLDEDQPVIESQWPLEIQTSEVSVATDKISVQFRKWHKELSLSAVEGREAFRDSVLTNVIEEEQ

Assays:
NdmA-His6 = molecular target: T1, NdmA-His6 (Pseudomonas putida, UniProt H9N289); test: Kinetic parameters of NdmA-His6 with His6-NdmD; assay type: biochemical, Pseudomonas putida CBB5; conditions: NdmA-His6 plus His6-NdmD
T1 sequence (H9N289 1-351): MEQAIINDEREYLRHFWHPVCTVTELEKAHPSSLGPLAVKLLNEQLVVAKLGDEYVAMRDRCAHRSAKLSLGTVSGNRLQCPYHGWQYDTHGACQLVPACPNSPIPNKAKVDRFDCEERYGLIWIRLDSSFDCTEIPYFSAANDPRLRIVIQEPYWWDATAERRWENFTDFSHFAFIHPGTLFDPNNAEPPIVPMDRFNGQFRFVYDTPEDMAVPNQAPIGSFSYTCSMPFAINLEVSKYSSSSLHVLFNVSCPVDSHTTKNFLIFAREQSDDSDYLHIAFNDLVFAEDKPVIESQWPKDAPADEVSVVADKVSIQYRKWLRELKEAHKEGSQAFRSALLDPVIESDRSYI
Experimental: (§1) Methylxanthine N-demethylase activity assay contained, in 1-ml total volume, 0.5 mM methylxanthine, 1 mM NADH, 50 μM Fe(NH4)2(SO4)2, and an appropriate amount of NdmA-His6 or NdmB-His6 (7.4 μg-2.5 mg protein depending on substrate specificity) in 50 mM KPi buffer (pH 7.5). Approximately 4 U of partially purified reductase, prepared as described previously (Summers et al., 2011) or 59 U of purified His6-NdmD was added to reaction mixture. Catalase from bovine liver (4,000 U) was also added to reactions containing His6-NdmD. The reaction mixture was incubated at 30° C. with 300 rpm shaking on an incubating microplate shaker (VWR, Radnor, Pa.). Periodically, a small aliquot was sampled from the reaction mixture and mixed with equal volume of acetonitrile for quantifying concentrations of methylxanthines and N-demethylated products by HPLC. One unit of N-demethylase activity was defined as the consumption of one […] methylxanthine per minute.
(§2) Apparent kinetic parameters of NdmA-His6 and NdmB-His6 were determined by measuring the initial rate of disappearance (vo) of methylxanthines in 50 mM KPi buffer (pH 7.5) at 30° C. […] At 1, 5, 10, and 15 minutes, samples were removed from the reaction mixtures to quantitate substrate concentrations by HPLC. […] The apparent kinetic parameters were determined from Michaelis-Menten plots of vo against [S] fitted with the equation

NdmB-His6 = NdmB-His6 (Pseudomonas putida, UniProt H9N290); test: Kinetic parameters of NdmB-His6 with His6-NdmD; assay type: biochemical, Pseudomonas putida CBB5; conditions: NdmB-His6 plus His6-NdmD
Experimental: as §1, §2

SMILES	kcat/Km (NdmA-His6) [min^−1μM^−1]	kcat/Km (NdmB-His6) [min^−1μM^−1]
Cn1c(=O)[nH]c2nc[nH]c2c1=O [1-methylxanthine]	0.06	
Cn1c(=O)[nH]c(=O)c2[nH]cnc21 [3-Methylxanthine, 3-methylxanthine]		1.4
Cn1c(=O)c2[nH]cnc2n(C)c1=O [Theophylline, 1,3-dimethylxanthine]	9.1	0.016
